Measured data: PubChem BioAssay AID1053208 (Peter MacCallum Cancer Centre, 2014)
Assay: 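Synthetic lethal interactions between gene loss and doxorubicin in osteosarcoma cells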 (primary screen). System: mouse osteosarcoma cells, early-passage culture from an engineered mouse model of fibroblastic bone tumour. Knock-down reagent: siRNA pool against mouse genes, 40 nM. Time to read-out: about 120 h (48 h before drug, then 72 h with drug). Challenge: doxorubicin 100 nM for 72 h, roughly 30-40% inhibitory dose. Read-out: 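Luminescent ATP signal taken as viability with or without 100 nM doxorubicin for 72 h; mean of two wells set against non-targeting siRNA and turned into robust z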. Scale: viability z-score with doxorubicin and doxorubicin viability vs non-targeting: higher = more viable cells under doxorubicin; viability z-score without drug: higher = more viable cells with knock-down alone; z-score of drug to no-drug ratio: higher = less drug sensitisation by knock-down. Rule for the call: 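Called active if knock-down leaves viability unchanged without drug (z within -2 to 2) but lowers it with doxorubicin (z at or under -2)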.
Shown is an unselected part of about 17,000 reagents tested. Over the whole deposit, 788 (4.7%) were called active. 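Calls rest on z-score classes alone; an extra cut-off of viability at most 70% of control was not applied to them.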

target gene	combined z-score class	viability z-score with doxorubicin	viability z-score without drug	z-score of drug to no-drug ratio	doxorubicin viability vs non-targeting	call
Paqr5	no change with or without drug	0.45	-0.51	1.01	0.98	inactive
Atad3aos	no change with or without drug	0.9	0.84	0.45	1.02	inactive
Tradd	no change with or without drug	0.67	1.01	0.11	1	inactive
Psme3ip1	no change with or without drug	-0.9	-0.84	-0.22	0.86	inactive
Rev1	no change with or without drug	-0.9	0.17	-0.9	0.86	inactive
Cspp1	no change with or without drug	-1.35	1.52	-2.14	0.82	inactive
Dzip1	no change with or without drug	0.9	1.85	-0.22	1.02	inactive
Or5b121	no change with or without drug	0	1.52	-0.9	0.94	inactive
Immt	no change with or without drug	0.45	-0.51	1.01	0.98	inactive
Ikbke	high cell count with doxorubicin only	2.59	1.01	2.02	1.17	inactive
Or8u3	no change with or without drug	-0.22	-0.84	0.45	0.92	inactive
Btnl1	no change with or without drug	-0.22	-0.67	0.34	0.92	inactive
Mcub	no change with or without drug	0.9	0.84	0.45	1.02	inactive
Anapc15	no change with or without drug	0	0.17	0	0.94	inactive
Fkrp	no change with or without drug	-0.34	0.84	-0.79	0.91	inactive
Ccl19	no change with or without drug	0.22	0.17	0.22	0.96	inactive
Vsig4	no change with or without drug	0	-0.84	0.67	0.94	inactive
Tmx2	no change with or without drug	-0.45	0.84	-0.9	0.9	inactive
Tfap2d	no change with or without drug	1.12	1.18	0.45	1.04	inactive
Or5b117	no change with or without drug	0	-0.51	0.45	0.94	inactive

Taken from above:
Immt, z-score of drug to no-drug ratio: 1.01
Under “z-score of drug to no-drug ratio”, Tradd shows 0.11
Psme3ip1, call → inactive
